No constants are given. Whether binding was seen depends on the method and setting. In cells and extracts the contact can be indirect. A yes stands for co-enrichment or nearness to the bait. Other partners may have been found.
Target: G3BP1-APEX2-GFP (human (endogenous in HEK293T)) (UniProt Q13283)
Assay: proximity labelling

By UniProt entry, the sequences of proteins in these tests, tags left out.
UniProt Q13283: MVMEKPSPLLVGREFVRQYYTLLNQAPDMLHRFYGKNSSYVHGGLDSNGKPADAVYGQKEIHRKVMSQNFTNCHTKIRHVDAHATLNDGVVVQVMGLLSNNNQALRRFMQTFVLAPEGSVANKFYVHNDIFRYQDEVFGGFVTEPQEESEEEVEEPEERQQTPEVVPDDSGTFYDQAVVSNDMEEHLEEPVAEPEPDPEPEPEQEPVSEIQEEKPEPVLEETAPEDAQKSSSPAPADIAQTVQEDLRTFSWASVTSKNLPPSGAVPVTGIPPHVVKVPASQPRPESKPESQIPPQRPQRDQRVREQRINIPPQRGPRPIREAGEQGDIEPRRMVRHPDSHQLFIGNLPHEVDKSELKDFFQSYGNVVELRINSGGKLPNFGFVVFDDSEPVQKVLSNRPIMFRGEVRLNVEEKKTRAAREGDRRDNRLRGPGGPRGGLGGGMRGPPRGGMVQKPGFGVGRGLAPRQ

Row | Binder | binding
1 | RBMS1 (protein, UniProt P29558 1-406) MGKVWKQQMYPQYATYYYPQYLQAKQSLVPAHPMAPPSPSTTSSNNNSSSSSNSGWDQLSKTNLYIRGLPPHTTDQDLVKLCQPYGKIVSTKAILDKTTNKCKGYGFVDFDSPAAAQKAVSALKASGVQAQMAKQQEQDPTNLYISNLPLSMDEQELENMLKPFGQVISTRILRDSSGTSRGVGFARMESTEKCEAVIGHFNGKFIKTPPGVSAPTEPLLCKFADGGQKKRQNPNKYIPNGRPWHREGEVRLAGMTLTYDPTTAAIQNGFYPSPYSIATNRMITQTSITPYIASPVSAYQVQSPSWMQPQPYILQHPGAVLTPSMEHTMSLQPASMISPLAQQMSHLSLGSTGTYMPATSAMQGAYLPQYAHMQTTAVPVEEASGQQQVAVETSNDHSPYTFQPNK | binds
2 | EDC4 (protein, UniProt Q6P2E9 1-1401) MASCASIDIEDATQHLRDILKLDRPAGGPSAESPRPSSAYNGDLNGLLVPDPLCSGDSTSANKTGLRTMPPINLQEKQVICLSGDDSSTCIGILAKEVEIVASSDSSISSKARGSNKVKIQPVAKYDWEQKYYYGNLIAVSNSFLAYAIRAANNGSAMVRVISVSTSERTLLKGFTGSVADLAFAHLNSPQLACLDEAGNLFVWRLALVNGKIQEEILVHIRQPEGTPLNHFRRIIWCPFIPEESEDCCEESSPTVALLHEDRAEVWDLDMLRSSHSTWPVDVSQIKQGFIVVKGHSTCLSEGALSPDGTVLATASHDGYVKFWQIYIEGQDEPRCLHEWKPHDGRPLSCLLFCDNHKKQDPDVPFWRFLITGADQNRELKMWCTVSWTCLQTIRFSPDIFSSVSVPPSLKVCLDLSAEYLILSDVQRKVLYVMELLQNQEEGHACFSSISEFLLTHPVLSFGIQVVSRCRLRHTEVLPAEEENDSLGADGTHGAGAMESAAGVLIKLFCVHTKALQDVQIRFQPQLNPDVVAPLPTHTAHEDFTFGESRPELGSEGLGSAAHGSQPDLRRIVELPAPADFLSLSSETKPKLMTPDAFMTPSASLQQITASPSSSSSGSSSSSSSSSSSLTAVSAMSSTSAVDPSLTRPPEELTLSPKLQLDGSLTMSSSGSLQASPRGLLPGLLPAPADKLTPKGPGQVPTATSALSLELQEVEPLGLPQASPSRTRSPDVISSASTALSQDIPEIASEALSRGFGSSAPEGLEPDSMASAASALHLLSPRPRPGPELGPQLGLDGGPGDGDRHNTPSLLEAALTQEASTPDSQVWPTAPDITRETCSTLAESPRNGLQEKHKSLAFHRPPYHLLQQRDSQDASAEQSDHDDEVASLASASGGFGTKVPAPRLPAKDWKTKGSPRTSPKLKRKSKKDDGDAAMGSRLTEHQVAEPPEDWPALIWQQQRELAELRHSQEELLQRLCTQLEGLQSTVTGHVERALETRHEQEQRRLERALAEGQQRGGQLQEQLTQQLSQALSSAVAGRLERSIRDEIKKTVPPCVSRSLEPMAGQLSNSVATKLTAVEGSMKENISKLLKSKNLTDAIARAAADTLQGPMQAAYREAFQSVVLPAFEKSCQAMFQQINDSFRLGTQEYLQQLESHMKSRKAREQEAREPVLAQLRGLVSTLQSATEQMAATVAGSVRAEVQHQLHVAVGSLQESILAQVQRIVKGEVSVALKEQQAAVTSSIMQAMRSAAGTPVPSAHLDCQAQQAHILQLLQQGHLNQAFQQALTAADLNLVLYVCETVDPAQVFGQPPCPLSQPVLLSLIQQLASDLGTRTDLKLSYLEEAVMHLDHSDPITRDHMGSVMAQVRQKLFQFLQAEPHNSLGKAARRLSLMLHGLVTPSLP | binds
3 | UPF3B (protein, UniProt Q9BZI7 1-483) MKEEKEHRPKEKRVTLLTPAGATGSGGGTSGDSSKGEDKQDRNKEKKEALSKVVIRRLPPTLTKEQLQEHLQPMPEHDYFEFFSNDTSLYPHMYARAYINFKNQEDIILFRDRFDGYVFLDNKGQEYPAIVEFAPFQKAAKKKTKKRDTKVGTIDDDPEYRKFLESYATDNEKMTSTPETLLEEIEAKNRELIAKKTTPLLSFLKNKQRMREEKREERRRREIERKRQREEERRKWKEEEKRKRKDIEKLKKIDRIPERDKLKDEPKIKVHRFLLQAVNQKNLLKKPEKGDEKELDKREKAKKLDKENLSDERASGQSCTLPKRSDSELKDEKPKRPEDESGRDYREREREYERDQERILRERERLKRQEEERRRQKERYEKEKTFKRKEEEMKKEKDTLRDKGKKAESTESIGSSEKTEKKEEVVKRDRIRNKDRPAMQLYQPGARSRNRLCPPDDSTKSGDSAAERKQESGISHRKEGGEE | binds

More lines, now with the values ahead:

Row | binding | Binder
4 | binds | RBMS2 (protein, UniProt Q15434 1-407) MLLSVTSRPGISTFGYNRNNKKPYVSLAQQMAPPSPSNSTPNSSSGSNGNDQLSKTNLYIRGLQPGTTDQDLVKLCQPYGKIVSTKAILDKTTNKCKGYGFVDFDSPSAAQKAVTALKASGVQAQMAKQQEQDPTNLYISNLPLSMDEQELEGMLKPFGQVISTRILRDTSGTSRGVGFARMESTEKCEAIITHFNGKYIKTPPGVPAPSDPLLCKFADGGPKKRQNQGKFVQNGRAWPRNADMGVMALTYDPTTALQNGFYPAPYNITPNRMLAQSALSPYLSSPVSSYQRVTQTSPLQVPNPSWMHHHSYLMQPSGSVLTPGMDHPISLQPASMMGPLTQQLGHLSLSSTGTYMPTAAAMQGAYISQYTPVPSSSVSVEESSGQQNQVAVDAPSEHGVYSFQFNK
5 | binds | KHSRP (protein, UniProt Q92945 1-711) MSDYSTGGPPPGPPPPAGGGGGAGGAGGGPPPGPPGAGDRGGGGPGGGGPGGGSAGGPSQPPGGGGPGIRKDAFADAVQRARQIAAKIGGDAATTVNNSTPDFGFGGQKRQLEDGDQPESKKLASQGDSISSQLGPIHPPPRTSMTEEYRVPDGMVGLIIGRGGEQINKIQQDSGCKVQISPDSGGLPERSVSLTGAPESVQKAKMMLDDIVSRGRGGPPGQFHDNANGGQNGTVQEIMIPAGKAGLVIGKGGETIKQLQERAGVKMILIQDGSQNTNVDKPLRIIGDPYKVQQACEMVMDILRERDQGGFGDRNEYGSRIGGGIDVPVPRHSVGVVIGRSGEMIKKIQNDAGVRIQFKQDDGTGPEKIAHIMGPPDRCEHAARIINDLLQSLRSGPPGPPGGPGMPPGGRGRGRGQGNWGPPGGEMTFSIPTHKCGLVIGRGGENVKAINQQTGAFVEISRQLPPNGDPNFKLFIIRGSPQQIDHAKQLIEEKIEGPLCPVGPGPGGPGPAGPMGPFNPGPFNQGPPGAPPHAGGPPPHQYPPQGWGNTYPQWQPPAPHDPSKAAAAAADPNAAWAAYYSHYYQQPPGPVPGPAPAPAAPPAQGEPPQPPPTGQSDYTKAWEEYYKKIGQQPQQPGAPPQQDYTKAWEEYYKKQAQVATGGGPGAPPGSQPDYSAAWAEYYRQQAAYYGQTPGPGGPQPPPTQQGQQQAQ
6 | binds | HNRNPH3 (protein, UniProt P31942 1-346) MDWVMKHNGPNDASDGTVRLRGLPFGCSKEEIVQFFQGLEIVPNGITLTMDYQGRSTGEAFVQFASKEIAENALGKHKERIGHRYIEIFRSSRSEIKGFYDPPRRLLGQRPGPYDRPIGGRGGYYGAGRGSMYDRMRRGGDGYDGGYGGFDDYGGYNNYGYGNDGFDDRMRDGRGMGGHGYGGAGDASSGFHGGHFVHMRGLPFRATENDIANFFSPLNPIRVHIDIGADGRATGEADVEFVTHEDAVAAMSKDKNNMQHRYIELFLNSTPGGGSGMGGSGMGGYGRDGMDNQGGYGSVGRMGMGNNYSGGYGTPDGLGGYGRGGGGSGGYYGQGGMSGGGWRGMY
